Measured values from patent publication US5643872A (SmithKline Beecham Corporation, priority 1994, dated 1997).
HELM strings list residues between dots; [ac] is acetyl, [am] amide, other brackets name non-standard units.

Columns and labels:
[1] = general procedure: Boc solid-phase peptide synthesis; benzhydrylamine (BHA), 4-methylbenzhydrylamine (MBHA), chloromethyl, hydroxymethyl or SASRIN resin; settings: for cyclisation yield: cyclisation step
[2] = general procedure: Boc solid-phase peptide synthesis; BHA; settings: whole synthesis, scale 1 mmol
[3] = general procedure: Boc solid-phase peptide synthesis; MeBHA; settings: whole synthesis

## N^α Ac-cyclo-(S,S)-Cys-Arg-Gly-Asp-Ser-Arg-Gly-Asp-Ser-Pen-NH2
[1]; whole synthesis
  crude mass: 1000 mg
[1]; whole synthesis, scale of the general procedure 1.0 mmol
  crude yield: 100%

## PEPTIDE1{G.R.G.D.S.E.[am]}$PEPTIDE1,PEPTIDE1,1:R1-6:R3$$$V2.0
[2]
  crude mass: 566 mg
  crude yield: 94%
[1]; whole synthesis
  isolated mass: 137 mg

## PEPTIDE1{G.R.G.D.S.P}$PEPTIDE1,PEPTIDE1,1:R1-6:R2$$$V2.0
[1]
  cyclisation yield: 88%
[1]; whole synthesis
  crude mass: 256 mg

## PEPTIDE1{G.[MeArg].G.D.S.E.[am]}$PEPTIDE1,PEPTIDE1,1:R1-6:R3$$$V2.0
[2]
  crude mass: 680 mg
  crude yield: 100%
[1]; whole synthesis
  isolated mass: 356.8 mg

## PEPTIDE1{P.G.R.G.D.[dP]}$PEPTIDE1,PEPTIDE1,1:R1-6:R2$$$V2.0
[1]
  cyclisation yield: 31%
[1]; whole synthesis
  crude mass: 156 mg

## PEPTIDE1{P.R.G.D.[dF].P.R.G.D.[dF]}$PEPTIDE1,PEPTIDE1,1:R1-10:R2$$$V2.0
[1]
  cyclisation yield: 100%
[1]; whole synthesis
  crude mass: 370 mg

## PEPTIDE1{R.G.D.F.R.G.D.F}$PEPTIDE1,PEPTIDE1,1:R1-8:R2$$$V2.0
[1]
  cyclisation yield: 100%
[1]; whole synthesis
  crude mass: 247 mg
  isolated mass: 26 mg

## PEPTIDE1{[MeArg].G.D.F.R.G.D.F}$PEPTIDE1,PEPTIDE1,1:R1-8:R2$$$V2.0
[1]
  cyclisation yield: 95%
[1]; whole synthesis
  crude mass: 406 mg

## PEPTIDE1{[ac].C.R.G.D.S.R.G.D.S.C.[am]}$PEPTIDE1,PEPTIDE1,2:R3-11:R3$$$V2.0
[3]; scale 1.0 mmol
  isolated mass: 800 mg
  isolated yield: 80%

## PEPTIDE1{[ac].C.R.G.D.S.[MeArg].G.D.S.C.[am]}$PEPTIDE1,PEPTIDE1,2:R3-11:R3$$$V2.0
[3]; scale 1.0 mmol
  crude mass: 409 mg

## PEPTIDE1{[ac].C.[MeArg].G.D.S.R.G.D.S.C.[am]}$PEPTIDE1,PEPTIDE1,2:R3-11:R3$$$V2.0
[3]; scale 1.0 mmol
  isolated mass: 800 mg

## PEPTIDE1{[ac].C.[MeArg].G.D.[Pcs(2R,3R)].[am]}$PEPTIDE1,PEPTIDE1,2:R3-6:R3$$$V2.0
[3]; scale 0.5 mmol
  isolated mass: 92 mg

## PEPTIDE1{[ac].C.[MeArg].G.D.[Pcs(2R,3S)].[am]}$PEPTIDE1,PEPTIDE1,2:R3-6:R3$$$V2.0
[3]; scale 0.5 mmol
  isolated mass: 80 mg

## PEPTIDE1{[dA].R.G.D.S}$PEPTIDE1,PEPTIDE1,1:R1-5:R2$$$V2.0
[1]
  cyclisation yield: 67%
[1]; whole synthesis
  crude mass: 73 mg

## cyclo-(1,5)-Ala-Arg-Gly-Asp-D-Ser
[1]
  cyclisation yield: 67%
[1]; whole synthesis
  crude mass: 208 mg

## cyclo-(1,6)-Gly-Pro-Arg-Gly-Asp-D-Pro
[1]
  cyclisation yield: 42%
[1]; whole synthesis
  crude mass: 280 mg

## cyclo-(1,6)-Pro-Arg-Gly-Asp-Gly-D-Phe
[1]
  cyclisation yield: 84%
[1]; whole synthesis
  crude mass: 462 mg

## cyclo-(1,6)-Pro-Arg-Gly-Asp-Gly-D-Pro
[1]
  cyclisation yield: 63%
